# Data source: PubChem BioAssay AID1671195 (Yale University, 2021)
# Test: 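Genes whose knockdown alters LDL uptake in liver cancer cells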 (primary screen)
# Cells: human Huh7 hepatoma cells
# Reagents: siRNA pool against human genes, 18 nM
# Time to read-out: about 2 to 2.5 days of knockdown, then 8 h LDL uptake
# Challenge: DiI-labelled LDL at 30 µg/ml for 8 h, in lipoprotein-deficient serum medium
# Measured: 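Per-cell DiI-LDL intensity by automated imaging; well means scaled to the plate median and given as a robust z-score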
# Direction: robust z-score: higher = more LDL uptake after knockdown
# Call rule: 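a gene counts as active if at least two replicate z-scores exceed ±2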
# Shown is a random part of about 22,000 reagents. About 1,510 of them (6.9%) count as active. 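Active includes knockdowns raising or lowering LDL uptake; positive z-scores mean more uptake, negative mean less.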
Target gene,"robust z-score, replicate 1","robust z-score, replicate 2","robust z-score, replicate 3",activity call
KIR2DL4 (GeneID 3805),-1.23,-1.28,-1.04,inactive
CDK1 (GeneID 983),2.75,2.86,5.55,active
LTB4R2 (GeneID 56413),-0.45,-0.524,-0.261,inactive
LOC440935 (retired record) (GeneID 440935),-0.986,0.451,0.0839,inactive
LOC441905 (retired record) (GeneID 441905),-0.624,-0.531,-0.401,inactive
LMO2 (GeneID 4005),0.224,0.129,0.00508,inactive
PDCD6 (GeneID 10016),0.752,0.6,0.703,inactive
OR5V1 (GeneID 81696),-2.54,-2.37,-2.3,active
USP25 (GeneID 29761),0.556,0.0386,1.37,inactive
CX3CR1 (GeneID 1524),-2.08,-0.0233,0.905,inactive
SERPINA13P (GeneID 388007),-1.38,-2.24,-1.22,inactive
CDIP1 (GeneID 29965),-1.93,1.38,-0.87,inactive
MAML3 (GeneID 55534),-0.894,0.0552,-1,inactive
VSTM2B-DT (GeneID 284395),0.0039,0.221,0.531,inactive
CEP135 (GeneID 9662),2.24,0.112,0.706,inactive
SLC38A10 (GeneID 124565),-0.0313,-0.148,0.389,inactive
RPN1 (GeneID 6184),-1.16,-1.46,-0.636,inactive
NFKBIB (GeneID 4793),-1.42,-1.64,-1.36,inactive
ARMC10P1 (GeneID 389137),-0.73,-0.757,-0.653,inactive
CLEC4M (GeneID 10332),-1.38,-0.508,-2.26,inactive
LOC390256 (retired record) (GeneID 390256),0.404,0.268,0.404,inactive
DAG1 (GeneID 1605),0.67,0.925,0.297,inactive
ELP5 (GeneID 23587),-0.0887,1.59,-1.22,inactive
PPP1CC (GeneID 5501),1.47,0.3,1.68,inactive
MAGEA5P (GeneID 4104),-1.05,0.128,-0.671,inactive
AKAP11 (GeneID 11215),-1.33,-1.69,-1.45,inactive
WDR11 (GeneID 55717),1.91,2.74,0.612,inactive
C6orf136 (GeneID 221545),-1.46,-1.51,-1.54,inactive
DBX1 (GeneID 120237),0.195,0.284,-1.03,inactive
DNMT3B (GeneID 1789),0.0856,0.278,0.206,inactive
CDCA4 (GeneID 55038),0.036,-1.44,0.59,inactive
C1orf210 (GeneID 149466),-1.15,-0.909,-1.24,inactive

Laid out differently: 8 of the entries above.
Target gene	robust z-score, replicate 1	robust z-score, replicate 2	robust z-score, replicate 3	activity call
NFKBIB (GeneID 4793)	-1.42	-1.64	-1.36	inactive
ARMC10P1 (GeneID 389137)	-0.73	-0.757	-0.653	inactive
CLEC4M (GeneID 10332)	-1.38	-0.508	-2.26	inactive
LOC390256 (retired record) (GeneID 390256)	0.404	0.268	0.404	inactive
DAG1 (GeneID 1605)	0.67	0.925	0.297	inactive
ELP5 (GeneID 23587)	-0.0887	1.59	-1.22	inactive
PPP1CC (GeneID 5501)	1.47	0.3	1.68	inactive
MAGEA5P (GeneID 4104)	-1.05	0.128	-0.671	inactive

The results go on:
Target gene,"robust z-score, replicate 1","robust z-score, replicate 2","robust z-score, replicate 3",activity call
SF3B2 (GeneID 10992),-1.13,0.239,-0.29,inactive
WDCP (GeneID 80304),0.54,-0.494,0.137,inactive
FAM217B (GeneID 63939),3.7,4.06,4.55,active
MYH3 (GeneID 4621),-0.79,-0.929,-0.869,inactive
SS18L1 (GeneID 26039),0.382,-0.12,0.299,inactive
SLCO2B1 (GeneID 11309),-1.12,-1.17,-0.882,inactive
ADAM22 (GeneID 53616),-0.111,-0.764,-0.286,inactive
PLCL2 (GeneID 23228),-0.651,-0.02,-0.681,inactive
ATP5F1D (GeneID 513),-0.991,-1.08,-0.976,inactive
OSBPL8 (GeneID 114882),-2.28,0.157,0.118,inactive
C21orf91 (GeneID 54149),1.1,0.934,1.46,inactive
CNN2P9 (GeneID 441166),0.795,0.305,-0.238,inactive
PRKCD (GeneID 5580),-0.514,0.0399,-1.25,inactive
ARHGEF3 (GeneID 50650),1.34,1.57,1.37,inactive
SERPIND1 (GeneID 3053),-2.2,-1.7,-0.564,inactive
FLJ90680 (retired record) (GeneID 400926),-0.507,0.00574,-0.119,inactive
ENTPD1 (GeneID 953),-0.681,-0.721,-1.2,inactive
PRDX4 (GeneID 10549),-0.0567,-0.0467,0.207,inactive
CSAG2 (GeneID 102723547),0.436,-0.215,-0.431,inactive
FADS6 (GeneID 283985),0.897,0.917,1.48,inactive
RTL8C (GeneID 8933),0.053,1.05,0.176,inactive
EIF3L (GeneID 51386),-0.884,0.703,0.367,inactive
MYO7A (GeneID 4647),-0.0308,0.363,0.266,inactive
NUDT16L1 (GeneID 84309),0.151,0.225,0.124,inactive
TRPT1 (GeneID 83707),0.0403,0.534,0.585,inactive
TRIM62 (GeneID 55223),-0.95,0.252,0.134,inactive
WDR7 (GeneID 23335),1.33,-0.147,0.889,inactive
SELENOM (GeneID 140606),2.79,1.31,2.62,active
CAND2 (GeneID 23066),-1.11,-1.06,-0.823,inactive
LOC387922 (retired record) (GeneID 387922),-0.872,-0.74,-0.928,inactive
LACRT (GeneID 90070),0.0461,0.293,0.333,inactive
LOC388139 (retired record) (GeneID 388139),-0.124,0.103,0.26,inactive
CSF2RA (GeneID 1438),3.85,2.36,2.98,active
VNN3P (GeneID 55350),0.00668,0.674,0.742,inactive
TEX35 (GeneID 84066),0.495,-0.203,1.88,inactive
BAZ1B (GeneID 9031),0.866,3.04,1.69,inactive
